Measured values: PMC6015050
No constants are given. Whether binding was seen depends on the method and setting. Binding seen in cells or lysates may run through a third protein. A result given as binding can be weak or reduced; the word gives no strength. For some assays here: Sequences can lack the tags named with a protein.

Columns and labels:
[1] = biological target: T1, Ycf4 fused with HA tag at the N-terminus (HA-Ycf4) (C. reinhardtii) (UniProt O20030); experiment: co-IP; affinity-purified HA-Ycf4 preparation (anti-HA beads, β-DM), concentrated and fractionated by sucrose density gradient ultracentrifugation; fractions Y1, Y2, Y3 analysed by stained gel and immunoblot
T1 sequence: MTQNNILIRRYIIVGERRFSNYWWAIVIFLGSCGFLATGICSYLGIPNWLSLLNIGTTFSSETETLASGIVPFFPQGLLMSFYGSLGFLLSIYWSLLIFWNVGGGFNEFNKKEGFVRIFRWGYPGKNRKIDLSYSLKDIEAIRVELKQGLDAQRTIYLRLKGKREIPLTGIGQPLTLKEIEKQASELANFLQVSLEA

[2] = biological target: T1, Ycf4 fused with HA tag at the N-terminus (HA-Ycf4) (C. reinhardtii); experiment: co-IP; HA-Ycf4 from thylakoid extracts (1% β-DM) of the HA-ycf4 mutant on anti-HA beads, 1 h, eluted with HA peptide; stained gel and immunoblot; also from cells pulse-labelled with 35S (10 min) and chased 6 h, autoradiography; WT extract as negative control
[3] = biological target: T2, Ycf3 fused with HA-tag at the C-terminus (Ycf3-HA) (C. reinhardtii) (UniProt O20031); experiment: co-IP; Ycf3-HA from thylakoid extracts (1% α-DM) of the ycf3-HA mutant on anti-HA beads in a spin column, 1 h, eluted with HA peptide; stained gel and immunoblot; also from cells pulse-labelled with 35S (10 min) and chased 6 h, autoradiography; WT extract as negative control
T2 sequence: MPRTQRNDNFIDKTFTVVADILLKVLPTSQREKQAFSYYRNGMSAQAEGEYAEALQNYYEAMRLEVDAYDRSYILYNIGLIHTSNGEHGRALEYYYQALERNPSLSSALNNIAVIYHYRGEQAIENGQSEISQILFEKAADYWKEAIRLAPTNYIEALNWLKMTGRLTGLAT

[4] = biological target: Y3IP1 fused with HA tag at its C-terminus (Y3IP1-HA) (C. reinhardtii); experiment: co-IP; Y3IP1-HA from thylakoid extracts (1% α-DM) of the c-Y3IP1-HA strain on anti-HA beads, eluted with HA peptide; stained gel and immunoblot

LHCA5
binding [1]: binds

LHCA3
binding [1]: binds

Chlamyopsin protein (COP2)
binding [2]: no binding

PSAI
binding [1]: binds

LHCA8
binding [1]: binds

LHCA1
binding [1]: binds

LHCA7
binding [1]: binds

PSAL
binding [2]: binds | binding [1]: binds

LHCA6
binding [1]: binds

LHCA9
binding [1]: no binding

LHCA4
binding [1]: binds

LHCA2
binding [1]: no binding

Ycf3-interacting protein 1 (Y3IP1)
binding [3]: binds | binding [2]: binds

B1: endogenous Ycf3 (protein, UniProt O20031 1-172)
chain: T2 sequence
binding [4]: binds

B2: endogenous Ycf4 (protein, UniProt O20030 1-197)
chain: T1 sequence
binding [4]: binds
